Results taken from patent US20020086844A1 (Harvard, published 2002).
These are yes or no findings as the source states them, for the method shown. In cells and extracts the contact can be indirect. Some entries that bind do so weakly or less than the wild type.

By UniProt entry, the sequences of proteins in these tests, tags left out. Residues count along the entry.
UniProt P38646, residues 47-679: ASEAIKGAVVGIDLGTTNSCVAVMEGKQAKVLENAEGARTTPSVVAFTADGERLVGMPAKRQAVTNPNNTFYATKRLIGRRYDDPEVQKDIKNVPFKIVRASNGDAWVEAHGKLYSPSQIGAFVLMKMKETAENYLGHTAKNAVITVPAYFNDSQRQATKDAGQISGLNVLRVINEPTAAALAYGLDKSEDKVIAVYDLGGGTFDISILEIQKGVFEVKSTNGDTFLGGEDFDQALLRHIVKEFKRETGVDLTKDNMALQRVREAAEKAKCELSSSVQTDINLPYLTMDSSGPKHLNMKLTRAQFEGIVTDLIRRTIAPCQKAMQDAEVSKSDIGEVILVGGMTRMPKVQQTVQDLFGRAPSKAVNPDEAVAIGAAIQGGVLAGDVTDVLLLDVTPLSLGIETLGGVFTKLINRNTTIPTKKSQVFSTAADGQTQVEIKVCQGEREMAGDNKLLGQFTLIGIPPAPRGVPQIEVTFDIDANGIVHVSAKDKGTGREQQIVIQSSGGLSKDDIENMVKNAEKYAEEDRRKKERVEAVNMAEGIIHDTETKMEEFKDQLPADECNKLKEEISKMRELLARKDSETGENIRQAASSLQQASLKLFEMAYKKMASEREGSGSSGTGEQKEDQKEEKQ

Experiments:
[1] = target: mitochondrial Hsp70 homolog, mtHsp70 (GRP75) (human) (UniProt P38646); assay: heading of the FIG. 2 legend (co-immunoprecipitation)
[2] = target: mitochondrial Hsp70 homolog, mtHsp70 (GRP75) (human) (UniProt P38646); assay: co-immunoprecipitation, SDS/PAGE and Western blot (FIG. 2C)
[3] = target: mitochondrial Hsp70 homolog, mtHsp70 (GRP75) (human) (UniProt P38646); assay: co-immunoprecipitation and immunoblot of endogenous proteins, both directions

Measured: binding

B1: hTid-1L (other)
chain: VSLTGTKHNPFICTASFHTSAPLAKEDYYQILGVPRNASQKEIKKAYYQLAKKYHPDTNKDDPKAKEKFSQLAEAYEVLSDEVKRKQYDAYGSAGFDPGASGSQHSYWKGGPTVDPEELFRKIFGEFSSSSFGDFQTVFDQPQEYFMELTFNQAAKGVNKEFTVNIMDTCERCNGKGNEPGTKVQHCHYCGGSGMETINTGPFVMRSTCRRCGGRGSIIISPCVVCRGAGQAKQKKRVMIPVPAGVEDGQTVRMPVGKREIFITFRVQKSPVFRRDGADIHSDLFISIAQALLGGTARAQGLYETINVTIPPGTQTDQKIRMGGKGIPRINSYGYGDHYIHIKIRVPKRLTSRQQSLILSYAEDETDVEGTVNGVTLTSSGGSTMDSSAGSKARREAGEDEEGFLSKLKKMFTS
notes: Endogenous protein from human cell lysates; also called long form of human Tid1; 43 kDa TID1 splice variant
binds: all assays above

B2: hTid-1S (other)
chain: VSLTGTKHNPFICTASFHTSAPLAKEDYYQILGVPRNASQKEIKKAYYQLAKKYHPDTNKDDPKAKEKFSQLAEAYEVLSDEVKRKQYDAYGSAGFDPGASGSQHSYWKGGPTVDPEELFRKIFGEFSSSSFGDFQTVFDQPQEYFMELTFNQAAKGVNKEFTVNIMDTCERCNGKGNEPGTKVQHCHYCGGSGMETINTGPFVMRSTCRRCGGRGSIIISPCVVCRGAGQAKQKKRVMIPVPAGVEDGQTVRMPVGKREIFITFRVQKSPVFRRDGADIHSDLFISIAQALLGGTARAQGLYETINVTIPPGTQTDQKIRMGGKGIPRINSYGYGDHYIHIKIRVPKRLTSRQQSLILSYAEDETDVEGTVNGVTLTSSGKRSTGN
notes: Endogenous protein from human cell lysates; also called short form of human Tid1; 40 kDa TID1 splice variant
binds: all assays above
